Assay results published in publication PMC4446440, “Structural and functional analysis reveals that human OASL binds dsRNA to enhance RIG-I signaling” (Nucleic Acids Research, 2015).
No constants are given. Whether binding was seen depends on the method and setting. Some entries that bind do so weakly or less than the wild type. Where a sequence is shown, tags or fusion partners need not be part of it.

Columns and labels:
[1] = target: OASL, 3x C-terminal FLAG-tagged, stably expressed in Flp-In T-REx HEK293 cells (human) (UniProt Q15646); test: SEC; size exclusion chromatography on lysates of Flp-In T-Rex HEK293 cells stable transfected with OASL
[2] = target: OAS-like domain of OASL (residues 1-350) with a C-terminal 6xHis-tag (human) (UniProt Q15646); test: SEC; HiLoad 16/60 Superdex 75; 100 mM DL-malic acid pH 5.9, 200 Na2SO4, 300 mM NaCl, 2 mM BME, 5% glycerol; markers beta-amylase, albumin, carbonic anhydrase; both purified

binding [1]	binding [2]	Binder
binds		full-length OASL (human 2'-5' oligoadenylate synthetase-like protein), recombinant from insect cells (natural protein, UniProt Q15646 1-514, looked up, human OASL, full length (printed as 61 kDa); OAS-like domain (residues 1-350) followed by two ubiquitin-like domains; also called OAS-like protein) MALMQELYSTPASRLDSFVAQWLQPHREWKEEVLDAVRTVEEFLRQEHFQGKRGLDQDVRVLKVVKVGSFGNGTVLRSTREVELVAFLSCFHSFQEAAKHHKDVLRLIWKTMWQSQDLLDLGLEDLRMEQRVPDALVFTIQTRGTAEPITVTIVPAYRALGPSLPNSQPPPEVYVSLIKACGGPGNFCPSFSELQRNFVKHRPTKLKSLLRLVKHWYQQYVKARSPRANLPPLYALELLTIYAWEMGTEEDENFMLDEGFTTVMDLLLEYEVICIYWTKYYTLHNAIIEDCVRKQLKKERPIILDPADPTLNVAEGYRWDIVAQRASQCLKQDCCYDNRENPISSWNVKRARDIHLTVEQRGYPDFNLIVNPYEPIRKVKEKIRRTRGYSGLQRLSFQVPGSERQLLSSRCSLAKYGIFSHTHIYLLETIPSEIQVFVKNPDGGSYAYAINPNSFILGLKQQIEDQQGLPKKQQQLEFQGQVLQDWLGLGIYGIQDSDTLILSKKKGEALFPAS
	no binding	OAS-like domain of OASL (residues 1-350) with a C-terminal 6xHis-tag (domain or fragment, UniProt Q15646 1-350) MALMQELYSTPASRLDSFVAQWLQPHREWKEEVLDAVRTVEEFLRQEHFQGKRGLDQDVRVLKVVKVGSFGNGTVLRSTREVELVAFLSCFHSFQEAAKHHKDVLRLIWKTMWQSQDLLDLGLEDLRMEQRVPDALVFTIQTRGTAEPITVTIVPAYRALGPSLPNSQPPPEVYVSLIKACGGPGNFCPSFSELQRNFVKHRPTKLKSLLRLVKHWYQQYVKARSPRANLPPLYALELLTIYAWEMGTEEDENFMLDEGFTTVMDLLLEYEVICIYWTKYYTLHNAIIEDCVRKQLKKERPIILDPADPTLNVAEGYRWDIVAQRASQCLKQDCCYDNRENPISSWNVKR
